# Data from article PMC10847417.
# Chains of the proteins cited; added tags and fusions are not shown. Lines headed by an entry give the natural chain unless they say otherwise; changes in a name come on top.
# UniProt P14618: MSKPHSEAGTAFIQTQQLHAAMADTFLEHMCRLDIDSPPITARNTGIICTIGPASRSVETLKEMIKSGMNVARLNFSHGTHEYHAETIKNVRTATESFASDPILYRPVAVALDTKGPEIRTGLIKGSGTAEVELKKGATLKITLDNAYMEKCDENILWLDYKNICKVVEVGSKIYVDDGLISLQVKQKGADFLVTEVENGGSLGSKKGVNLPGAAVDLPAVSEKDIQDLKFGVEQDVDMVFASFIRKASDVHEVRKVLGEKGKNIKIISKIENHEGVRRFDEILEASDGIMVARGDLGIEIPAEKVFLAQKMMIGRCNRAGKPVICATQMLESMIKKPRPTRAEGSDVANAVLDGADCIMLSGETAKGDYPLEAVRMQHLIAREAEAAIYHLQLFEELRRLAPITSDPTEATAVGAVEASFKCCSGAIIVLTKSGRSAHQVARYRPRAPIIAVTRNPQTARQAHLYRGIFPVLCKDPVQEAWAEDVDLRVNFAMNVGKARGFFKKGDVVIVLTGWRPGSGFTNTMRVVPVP
# UniProt P67775: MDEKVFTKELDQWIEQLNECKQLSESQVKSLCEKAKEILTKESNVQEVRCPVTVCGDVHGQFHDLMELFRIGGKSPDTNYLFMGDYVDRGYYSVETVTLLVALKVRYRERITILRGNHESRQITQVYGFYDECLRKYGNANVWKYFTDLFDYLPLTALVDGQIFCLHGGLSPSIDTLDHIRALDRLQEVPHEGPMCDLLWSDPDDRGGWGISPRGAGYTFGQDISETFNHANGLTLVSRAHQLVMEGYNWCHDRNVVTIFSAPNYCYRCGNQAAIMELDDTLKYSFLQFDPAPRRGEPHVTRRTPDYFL
# Target: pyruvate kinase M2 (PKM2), endogenous (human (endogenous in A549 and H1299)) (UniProt P14618)
# Assay: co-IP; endogenous proteins in A549 and H1299 lysates; IP lysis buffer, 2 μg antibody and Protein A/G PLUS-Agarose at 4 °C overnight, five washes, western blot
substance,measurement,value
"PP2AC, endogenous (from UniProt P67775) (enzyme)",binding,binds

# These are yes or no findings as the source states them, for the method shown. In cells and extracts the contact can be indirect. Binding can be weak; no strength is given.
